# In publication PMC9823104:
# The chains behind the UniProt entries cited, without tags or fusion partners. Where a name states a change or a piece, a line headed by the entry shows the natural chain unless it says otherwise.
# UniProt P26358: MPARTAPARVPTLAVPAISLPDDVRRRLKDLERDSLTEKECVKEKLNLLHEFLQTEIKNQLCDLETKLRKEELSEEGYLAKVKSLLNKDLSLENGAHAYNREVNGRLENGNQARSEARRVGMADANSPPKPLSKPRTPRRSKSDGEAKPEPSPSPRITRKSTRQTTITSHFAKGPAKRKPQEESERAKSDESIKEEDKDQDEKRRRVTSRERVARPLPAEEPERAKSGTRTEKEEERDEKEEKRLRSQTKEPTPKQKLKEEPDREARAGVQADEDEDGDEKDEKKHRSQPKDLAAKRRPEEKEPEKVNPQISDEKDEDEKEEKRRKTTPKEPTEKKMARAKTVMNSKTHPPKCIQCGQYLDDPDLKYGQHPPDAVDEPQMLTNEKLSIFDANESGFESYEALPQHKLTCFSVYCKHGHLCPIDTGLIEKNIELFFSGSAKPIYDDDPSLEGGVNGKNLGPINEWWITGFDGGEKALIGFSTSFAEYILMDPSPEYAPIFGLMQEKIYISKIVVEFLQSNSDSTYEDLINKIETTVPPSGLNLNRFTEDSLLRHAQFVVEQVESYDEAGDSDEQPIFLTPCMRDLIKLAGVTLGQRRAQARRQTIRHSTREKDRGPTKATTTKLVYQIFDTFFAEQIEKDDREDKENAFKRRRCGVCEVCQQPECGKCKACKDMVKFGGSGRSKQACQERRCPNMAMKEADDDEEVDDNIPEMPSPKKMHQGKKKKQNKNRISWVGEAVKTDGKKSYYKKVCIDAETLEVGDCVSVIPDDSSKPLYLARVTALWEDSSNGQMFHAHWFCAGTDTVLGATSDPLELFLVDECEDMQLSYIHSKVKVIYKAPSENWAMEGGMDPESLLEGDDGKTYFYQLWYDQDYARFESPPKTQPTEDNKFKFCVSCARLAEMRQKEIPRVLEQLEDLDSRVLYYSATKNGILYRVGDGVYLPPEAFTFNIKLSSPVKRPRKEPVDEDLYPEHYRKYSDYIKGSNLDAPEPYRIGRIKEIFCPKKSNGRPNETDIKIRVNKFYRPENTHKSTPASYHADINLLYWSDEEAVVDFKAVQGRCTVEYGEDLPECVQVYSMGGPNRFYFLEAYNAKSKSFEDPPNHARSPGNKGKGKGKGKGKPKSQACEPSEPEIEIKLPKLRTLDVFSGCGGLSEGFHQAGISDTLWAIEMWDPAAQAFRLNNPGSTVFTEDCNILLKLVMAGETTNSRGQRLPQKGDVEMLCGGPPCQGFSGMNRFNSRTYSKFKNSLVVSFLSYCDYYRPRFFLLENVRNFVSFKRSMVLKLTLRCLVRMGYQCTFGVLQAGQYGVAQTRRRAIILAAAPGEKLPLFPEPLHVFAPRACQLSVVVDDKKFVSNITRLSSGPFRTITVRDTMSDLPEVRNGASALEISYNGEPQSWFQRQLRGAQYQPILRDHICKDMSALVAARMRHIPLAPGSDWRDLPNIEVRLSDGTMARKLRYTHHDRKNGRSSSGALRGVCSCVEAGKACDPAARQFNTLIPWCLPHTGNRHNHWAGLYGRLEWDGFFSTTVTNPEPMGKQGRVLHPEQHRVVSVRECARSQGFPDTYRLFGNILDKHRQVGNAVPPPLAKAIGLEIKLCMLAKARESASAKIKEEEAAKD
# Key:
# [1] = biological target: DNMT1 (purified, Active Motif) (UniProt P26358); experiment: EMSA; conditions: 5 mM Mg2+, 0.8 uM protein; 2'-F pyrimidines (all C and U); EMSA: 5 mM Tris pH 7.4, 5 mM MgCl2, 1 mM DTT, 3% glycerol, 100 mM NaCl, RT; commercial protein; label: 5' 32P
# [2] = biological target: Human serum albumin (HSA) (Homo sapiens) (UniProt P02768); experiment: ELONA; conditions: up to 750 nM RNA; 2'-F pyrimidines (all C and U); label: biotin (3' in Fig. 2c)
# DNMT1 endogenous (K562) = DNMT1 endogenous (K562) (UniProt P26358); experiment: pull-down; conditions: 200 nM RNA; 2'-F pyrimidines (all C and U); pulldown: 10 mM Tris pH 7.5, 5 mM EDTA, 0.1% Triton X-100; protein in an extract; label: biotin (3' in Fig. 2c)
# DNMT3A = DNMT3A (UniProt Q9Y6K1); experiment: BLI; conditions: 2'-F pyrimidines (all C and U); BLI: AR2G tips, protein amine-coupled, assay buffer not fully stated (PBS pre-hydration); commercial protein
# DNMT3B = DNMT3B (UniProt Q9UBC3); experiment: BLI; conditions: 2'-F pyrimidines (all C and U); BLI: AR2G tips, protein amine-coupled, assay buffer not fully stated (PBS pre-hydration); commercial protein
# KAT5 = KAT5 (UniProt Q92993); experiment: BLI; conditions: 2'-F pyrimidines (all C and U); BLI: AR2G tips, protein amine-coupled, assay buffer not fully stated (PBS pre-hydration); commercial protein
Sequence,binding result (DNMT1 endogenous (K562)),binding result (DNMT3A),binding result (DNMT3B),binding result (KAT5),further results
CUGAGGCCUAACGAAGGCUUCU [Ce-49 sh 32P],–,–,–,–,binding result [1]: binds
CUGAGGCCUAACGAAGGCUUCU [Ce-49 sh biotin],binds,–,–,–,binding result [2]: no binding
CUGAGGCCUAACGAAGGCUUCU [Ce-49 sh],–,no binding,no binding,no binding,–
CUGAGGCCUUGGCGAGGCUUCU [DNMT1 bait (2'F-Py R5)],–,no binding,no binding,no binding,–
CUGAGGCCUUGGCGAGGCUUCU [DNMT1 bait biotin],binds,–,–,–,–
UUACUGGGCUGAGGUAAUGGCGAGG [Ce-10-2 sh 32P],–,–,–,–,binding result [1]: binds
UUACUGGGCUGAGGUAAUGGCGAGG [Ce-10-2 sh biotin],binds,–,–,–,binding result [2]: no binding
UUACUGGGCUGAGGUAAUGGCGAGG [Ce-10-2 sh],–,no binding,no binding,no binding,–

# For some of these results: A negative result means that nothing was seen under these conditions. For some of these results: For at least one entry, the source does not settle the construct or the ends of the probe. For some of these results: At least one verdict was read from the data and is not stated in words by the source. For some of these results: Where cells or extracts were used, other partners may take part.
